Data source: PubChem BioAssay AID602196 (INSERM, 2012)

- Aim: 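Knock-downs that protect lung cancer cells from cisplatin or sensitise them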
- Cell system: human A549 lung cancer cells
- Reagent: siRNA pair against human genes
- Timing: 48 h transfection before cisplatin; time from cisplatin to read-out not stated
- Treatment: cisplatin at a dose killing half of control-siRNA cells; exact dose and duration not given
- Detection: 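Cisplatin cell death as a shift from the 50% death seen with control siRNA; siRNAs toxic or growth-blocking alone scored 0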
- Reading the numbers: two-siRNA summed score (-2 to +2): higher = both siRNAs protect from cisplatin killing; -2 means both sensitise
- Active means: 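Each siRNA scores 0 if harmful alone by LDH or WST-1, otherwise +1 if it reduces and -1 if it increases cisplatin killing; a gene is active when both siRNAs agree (sum +2 or -2)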
- Calls: active = both siRNAs shift cisplatin killing the same way; inactive = no consistent shift, or siRNA harmful alone
This is an unselected part of about 23,000 deposited reagents. Over the whole deposit, 455 (2%) are marked active. 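Active includes both protection and sensitisation; some change values fall well beyond the stated -50 to +50 range.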 Not all columns of the deposit are shown. Not given: the amount of reagent.

gene knocked down	two-siRNA summed score (-2 to +2)	call
PLA2G7	-1	inactive
RERGL	0	inactive
PPP1R15A	1	inactive
NRSN1	0	inactive
LOC283970	0	inactive
LOC390704	0	inactive
PLEKHG4	0	inactive
LINC01549	-1	inactive
LOC391705	0	inactive
PITPNC1	0	inactive
TFDP2	0	inactive
TGM3	0	inactive
C5AR2	0	inactive
BRAT1	0	inactive
MTG1	0	inactive
UBA52	0	inactive
CST9L	0	inactive
OR1D4	0	inactive
ARL5B	0	inactive
KRTAP6-2	-1	inactive
CALB2	0	inactive
PSMD7	1	inactive
LOC389019	1	inactive

Part of the list above in another layout:
gene knocked down,two-siRNA summed score (-2 to +2),call
RERGL,0,inactive
PPP1R15A,1,inactive
NRSN1,0,inactive
